# The supplement of paper PMC11006884
# Amino acid sequences for entries named in this document (tags omitted). A change or cut given only in a name is not applied to a line headed by its entry.
# UniProt Q9Y613: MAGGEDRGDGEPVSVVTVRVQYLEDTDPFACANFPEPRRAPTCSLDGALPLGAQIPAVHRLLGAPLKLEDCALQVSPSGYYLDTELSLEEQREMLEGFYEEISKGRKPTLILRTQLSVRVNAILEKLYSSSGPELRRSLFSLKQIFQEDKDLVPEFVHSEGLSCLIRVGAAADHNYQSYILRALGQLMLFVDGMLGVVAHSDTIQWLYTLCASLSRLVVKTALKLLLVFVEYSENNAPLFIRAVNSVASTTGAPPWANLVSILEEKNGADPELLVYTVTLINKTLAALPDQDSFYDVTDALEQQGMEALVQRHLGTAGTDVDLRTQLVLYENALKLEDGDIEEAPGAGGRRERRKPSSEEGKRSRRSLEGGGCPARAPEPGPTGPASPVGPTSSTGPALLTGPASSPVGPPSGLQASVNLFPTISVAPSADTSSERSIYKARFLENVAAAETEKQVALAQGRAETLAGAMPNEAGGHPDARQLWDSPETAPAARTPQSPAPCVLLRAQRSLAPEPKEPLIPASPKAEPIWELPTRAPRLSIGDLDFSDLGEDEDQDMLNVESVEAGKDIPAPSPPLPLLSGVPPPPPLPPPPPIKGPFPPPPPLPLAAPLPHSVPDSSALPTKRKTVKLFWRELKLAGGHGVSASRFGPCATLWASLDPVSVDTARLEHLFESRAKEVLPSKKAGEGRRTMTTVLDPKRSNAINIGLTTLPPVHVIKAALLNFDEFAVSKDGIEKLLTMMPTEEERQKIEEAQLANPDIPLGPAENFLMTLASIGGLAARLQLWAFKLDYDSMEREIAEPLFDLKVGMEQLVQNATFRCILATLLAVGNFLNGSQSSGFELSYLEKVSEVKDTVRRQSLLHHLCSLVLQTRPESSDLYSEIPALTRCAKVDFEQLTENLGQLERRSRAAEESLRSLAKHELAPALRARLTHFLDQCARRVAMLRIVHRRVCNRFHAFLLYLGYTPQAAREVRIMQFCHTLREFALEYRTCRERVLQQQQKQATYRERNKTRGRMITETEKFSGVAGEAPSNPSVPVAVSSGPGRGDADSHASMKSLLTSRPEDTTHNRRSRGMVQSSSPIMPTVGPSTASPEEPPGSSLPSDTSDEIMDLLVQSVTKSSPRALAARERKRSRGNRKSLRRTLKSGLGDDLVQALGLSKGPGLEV
# UniProt Q9Y4P8: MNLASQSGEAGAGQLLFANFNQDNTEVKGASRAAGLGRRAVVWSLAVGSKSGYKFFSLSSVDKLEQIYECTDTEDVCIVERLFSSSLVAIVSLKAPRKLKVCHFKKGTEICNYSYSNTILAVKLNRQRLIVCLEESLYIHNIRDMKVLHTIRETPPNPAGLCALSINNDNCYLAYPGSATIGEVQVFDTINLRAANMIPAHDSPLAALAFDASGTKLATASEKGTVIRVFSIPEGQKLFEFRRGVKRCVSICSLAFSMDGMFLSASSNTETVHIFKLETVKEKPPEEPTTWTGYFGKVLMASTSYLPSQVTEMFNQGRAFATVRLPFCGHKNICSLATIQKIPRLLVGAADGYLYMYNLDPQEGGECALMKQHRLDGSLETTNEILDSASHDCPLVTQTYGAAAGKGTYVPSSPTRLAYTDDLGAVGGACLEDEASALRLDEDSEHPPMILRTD
# UniProt Q9Y490: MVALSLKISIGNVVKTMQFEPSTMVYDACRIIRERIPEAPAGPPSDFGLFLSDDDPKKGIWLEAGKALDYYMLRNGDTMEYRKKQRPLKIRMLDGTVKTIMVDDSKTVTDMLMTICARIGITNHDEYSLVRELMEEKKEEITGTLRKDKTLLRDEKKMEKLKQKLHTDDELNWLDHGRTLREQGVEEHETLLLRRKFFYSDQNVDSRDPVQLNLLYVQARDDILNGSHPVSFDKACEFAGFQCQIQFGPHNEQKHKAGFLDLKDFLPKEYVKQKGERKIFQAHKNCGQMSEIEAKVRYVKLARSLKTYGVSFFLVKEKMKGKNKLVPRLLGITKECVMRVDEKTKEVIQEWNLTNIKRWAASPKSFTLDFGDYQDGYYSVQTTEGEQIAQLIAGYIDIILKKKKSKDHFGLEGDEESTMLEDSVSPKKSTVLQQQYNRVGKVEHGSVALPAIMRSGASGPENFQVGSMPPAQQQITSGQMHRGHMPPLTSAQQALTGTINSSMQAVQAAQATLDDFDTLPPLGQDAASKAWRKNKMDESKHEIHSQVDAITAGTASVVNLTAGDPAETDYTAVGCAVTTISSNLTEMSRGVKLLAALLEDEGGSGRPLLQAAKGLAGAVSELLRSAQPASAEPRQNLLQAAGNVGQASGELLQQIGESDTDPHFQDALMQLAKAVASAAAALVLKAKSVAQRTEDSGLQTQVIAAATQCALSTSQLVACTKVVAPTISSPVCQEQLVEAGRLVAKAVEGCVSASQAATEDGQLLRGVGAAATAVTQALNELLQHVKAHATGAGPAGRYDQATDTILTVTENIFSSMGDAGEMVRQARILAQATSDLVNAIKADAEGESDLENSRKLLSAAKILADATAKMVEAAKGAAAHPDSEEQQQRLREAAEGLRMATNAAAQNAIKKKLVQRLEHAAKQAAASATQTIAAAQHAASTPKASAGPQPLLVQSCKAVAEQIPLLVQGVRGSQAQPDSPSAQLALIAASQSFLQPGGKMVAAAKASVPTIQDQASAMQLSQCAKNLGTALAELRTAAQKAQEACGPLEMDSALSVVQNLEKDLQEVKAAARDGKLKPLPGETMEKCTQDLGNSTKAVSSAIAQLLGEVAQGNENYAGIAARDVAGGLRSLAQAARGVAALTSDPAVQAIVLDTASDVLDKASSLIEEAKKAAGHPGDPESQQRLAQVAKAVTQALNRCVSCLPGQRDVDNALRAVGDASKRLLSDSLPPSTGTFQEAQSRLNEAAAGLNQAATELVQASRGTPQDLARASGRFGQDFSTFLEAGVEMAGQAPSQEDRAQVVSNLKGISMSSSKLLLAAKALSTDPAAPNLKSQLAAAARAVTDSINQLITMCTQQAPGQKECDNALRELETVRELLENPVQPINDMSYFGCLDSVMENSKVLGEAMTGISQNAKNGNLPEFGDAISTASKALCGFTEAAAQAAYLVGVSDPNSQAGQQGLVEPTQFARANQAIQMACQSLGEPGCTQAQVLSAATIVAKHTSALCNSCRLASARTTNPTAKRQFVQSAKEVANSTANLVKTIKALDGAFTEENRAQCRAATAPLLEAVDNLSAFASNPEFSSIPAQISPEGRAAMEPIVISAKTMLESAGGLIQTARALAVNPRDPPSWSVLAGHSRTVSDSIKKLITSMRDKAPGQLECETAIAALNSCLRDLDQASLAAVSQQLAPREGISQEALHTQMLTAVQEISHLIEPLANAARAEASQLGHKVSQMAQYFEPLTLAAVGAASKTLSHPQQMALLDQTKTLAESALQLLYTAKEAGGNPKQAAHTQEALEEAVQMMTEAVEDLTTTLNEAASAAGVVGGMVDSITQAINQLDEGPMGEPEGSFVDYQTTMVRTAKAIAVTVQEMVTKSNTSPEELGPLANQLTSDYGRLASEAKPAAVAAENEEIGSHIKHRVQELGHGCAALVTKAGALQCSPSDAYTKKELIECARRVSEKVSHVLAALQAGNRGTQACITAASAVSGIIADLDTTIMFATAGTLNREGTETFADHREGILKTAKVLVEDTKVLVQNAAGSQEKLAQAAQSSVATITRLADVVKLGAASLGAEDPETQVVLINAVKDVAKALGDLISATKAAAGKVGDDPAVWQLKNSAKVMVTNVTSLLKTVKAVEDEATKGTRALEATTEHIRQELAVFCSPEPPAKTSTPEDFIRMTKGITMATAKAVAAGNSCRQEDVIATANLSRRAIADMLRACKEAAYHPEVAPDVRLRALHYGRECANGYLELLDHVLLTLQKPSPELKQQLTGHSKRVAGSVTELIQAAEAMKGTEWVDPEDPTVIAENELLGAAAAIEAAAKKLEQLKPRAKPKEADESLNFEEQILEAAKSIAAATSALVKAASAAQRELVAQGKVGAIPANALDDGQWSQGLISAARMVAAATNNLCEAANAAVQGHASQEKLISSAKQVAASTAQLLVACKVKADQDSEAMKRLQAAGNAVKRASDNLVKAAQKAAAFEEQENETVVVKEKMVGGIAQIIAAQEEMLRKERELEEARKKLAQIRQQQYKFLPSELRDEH
# UniProt Q9Y678: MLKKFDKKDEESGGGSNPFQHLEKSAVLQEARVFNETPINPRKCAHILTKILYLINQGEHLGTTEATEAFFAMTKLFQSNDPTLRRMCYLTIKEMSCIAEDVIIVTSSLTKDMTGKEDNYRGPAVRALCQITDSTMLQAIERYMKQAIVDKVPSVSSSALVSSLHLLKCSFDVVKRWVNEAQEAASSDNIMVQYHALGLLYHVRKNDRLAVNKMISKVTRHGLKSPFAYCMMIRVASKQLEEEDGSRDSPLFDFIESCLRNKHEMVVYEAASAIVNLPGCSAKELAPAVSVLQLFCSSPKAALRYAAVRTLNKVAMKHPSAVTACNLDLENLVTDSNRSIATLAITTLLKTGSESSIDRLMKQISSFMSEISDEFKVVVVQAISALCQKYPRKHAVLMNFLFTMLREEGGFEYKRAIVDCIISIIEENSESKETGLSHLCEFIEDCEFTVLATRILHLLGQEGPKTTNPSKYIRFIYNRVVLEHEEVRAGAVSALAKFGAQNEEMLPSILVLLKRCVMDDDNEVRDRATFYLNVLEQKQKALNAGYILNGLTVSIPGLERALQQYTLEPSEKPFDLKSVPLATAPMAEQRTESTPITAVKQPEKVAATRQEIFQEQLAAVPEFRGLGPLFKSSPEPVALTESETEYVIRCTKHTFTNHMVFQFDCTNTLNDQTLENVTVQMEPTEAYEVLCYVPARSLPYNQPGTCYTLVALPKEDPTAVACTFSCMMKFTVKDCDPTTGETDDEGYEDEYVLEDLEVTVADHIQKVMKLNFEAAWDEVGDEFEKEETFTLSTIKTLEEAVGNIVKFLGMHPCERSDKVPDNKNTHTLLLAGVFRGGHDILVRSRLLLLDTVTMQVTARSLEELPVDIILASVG
# UniProt Q9Y4Z0: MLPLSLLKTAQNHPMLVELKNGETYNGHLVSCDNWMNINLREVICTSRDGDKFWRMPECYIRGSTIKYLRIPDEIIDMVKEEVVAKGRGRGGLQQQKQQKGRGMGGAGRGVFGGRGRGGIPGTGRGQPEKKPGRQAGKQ
# UniProt Q9Y697: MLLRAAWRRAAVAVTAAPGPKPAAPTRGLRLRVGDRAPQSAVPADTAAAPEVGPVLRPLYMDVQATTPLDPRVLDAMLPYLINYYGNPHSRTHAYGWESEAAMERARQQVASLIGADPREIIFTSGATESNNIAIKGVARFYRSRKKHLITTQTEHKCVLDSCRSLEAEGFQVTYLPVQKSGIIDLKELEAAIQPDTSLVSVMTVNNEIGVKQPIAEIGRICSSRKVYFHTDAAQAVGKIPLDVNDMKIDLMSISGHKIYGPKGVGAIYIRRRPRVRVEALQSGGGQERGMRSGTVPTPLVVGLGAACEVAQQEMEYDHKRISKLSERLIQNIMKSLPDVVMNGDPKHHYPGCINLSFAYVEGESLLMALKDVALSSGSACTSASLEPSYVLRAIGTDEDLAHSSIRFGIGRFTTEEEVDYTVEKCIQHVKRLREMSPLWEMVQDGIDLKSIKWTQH
# UniProt Q9Y679: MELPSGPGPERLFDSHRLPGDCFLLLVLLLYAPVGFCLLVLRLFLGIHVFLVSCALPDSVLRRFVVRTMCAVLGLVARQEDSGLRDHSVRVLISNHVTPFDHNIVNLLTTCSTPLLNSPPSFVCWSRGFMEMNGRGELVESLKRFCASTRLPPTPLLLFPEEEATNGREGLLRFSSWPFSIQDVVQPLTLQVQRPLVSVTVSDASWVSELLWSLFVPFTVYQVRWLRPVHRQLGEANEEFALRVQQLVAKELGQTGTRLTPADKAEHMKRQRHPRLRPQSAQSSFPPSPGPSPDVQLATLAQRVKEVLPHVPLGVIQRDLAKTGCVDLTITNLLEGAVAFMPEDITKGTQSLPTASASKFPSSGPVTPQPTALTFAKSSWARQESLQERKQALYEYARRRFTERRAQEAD
# UniProt Q9Y508: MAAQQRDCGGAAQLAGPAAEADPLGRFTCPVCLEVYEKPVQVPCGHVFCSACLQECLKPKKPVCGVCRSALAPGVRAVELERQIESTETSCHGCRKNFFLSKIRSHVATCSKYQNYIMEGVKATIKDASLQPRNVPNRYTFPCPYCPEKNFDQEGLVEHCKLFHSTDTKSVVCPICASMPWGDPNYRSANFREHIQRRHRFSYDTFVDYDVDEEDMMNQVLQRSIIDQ
# UniProt Q9Y6B6: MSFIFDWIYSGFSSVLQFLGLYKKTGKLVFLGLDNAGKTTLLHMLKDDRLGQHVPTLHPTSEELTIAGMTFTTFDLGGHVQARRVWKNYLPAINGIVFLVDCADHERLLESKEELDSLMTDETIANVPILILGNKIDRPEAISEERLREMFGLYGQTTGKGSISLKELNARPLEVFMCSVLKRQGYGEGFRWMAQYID
# The list shows a part of the results, in another mix than the full data.
# Compound: COC(=O)C#Cc1ccccc1 [methyl 3-phenylpropiolate]
# Assay: log2 ratio of iodoacetamide-alkyne labeling of the cysteine site, DMSO over compound (competition); higher = stronger covalent engagement of the cysteine by the compound, active = 1 or more
# Details: 500 µM; treatment time 1 h; system: HEK293T cell lysate
# In short: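 Electrophile (500 µM) or vehicle was added to HEK293T lysate (2 mg/mL) for 1 h at ambient temperature before iodoacetamide alkyne labelling (1 h) and click coupling to sCIP-TMT reagents. After pooling, overnight trypsin digestion at 37 °C, streptavidin enrichment and acid elution, peptides were measured by Orbitrap Eclipse LC-MS/MS with FAIMS and quantified in FragPipe. Each cysteine's log2 competition ratio compares mean control-channel with mean compound-channel reporter intensity, control over compound. Data came from duplicate channels across three replicates, excluding cysteines quantified in only one replicate.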
row,Target,log2 ratio of iodoacetamide-alkyne labeling
1,UniProt Q9Y520_C895,inactive: 0.435
2,UniProt Q9Y520_C223,inactive: 0.239
3,CD2AP C540 (UniProt Q9Y5K6),inactive: 0.456
4,FHOD1 C502 (UniProt Q9Y613),inactive: 0.926
5,FHOD1 C31 (UniProt Q9Y613),inactive: 0.248
6,WIPI2 C393 (UniProt Q9Y4P8),active: 1.22
7,MAP3K4 C596 (UniProt Q9Y6R4),inactive: 0.793
8,SNX9 C252 (UniProt Q9Y5X1),inactive: 0.334
9,TAF6L C41 (UniProt Q9Y6J9),inactive: 0.0349
10,TLN1 C2243 (UniProt Q9Y490),inactive: 0.0807
11,UniProt Q9Y678_C516,inactive: 0.136
12,GMPPB C230 (UniProt Q9Y5P6),inactive: -0.0616
13,LAS1L C306 (UniProt Q9Y4W2),inactive: 0.239
14,UTP18 C241 (UniProt Q9Y5J1),inactive: 0.238
15,LSM4 C32 (UniProt Q9Y4Z0),inactive: 0.146
16,TACC3 C20 (UniProt Q9Y6A5),inactive: 0.333

# Single entries from above:
# UniProt Q9Y678_C516 | log2 ratio of iodoacetamide-alkyne labeling: inactive: 0.136
# MAP3K4 C596 (UniProt Q9Y6R4) | log2 ratio of iodoacetamide-alkyne labeling: inactive: 0.793

# Following part.

row,Target,log2 ratio of iodoacetamide-alkyne labeling
1,TELO2 C628 (UniProt Q9Y4R8),inactive: 0.243
2,TAF6L C81 (UniProt Q9Y6J9),inactive: 0.103
3,NFS1 C426 (UniProt Q9Y697),inactive: 0.148
4,KCTD3 C606 (UniProt Q9Y597),active: 1.08
5,AUP1 C391 (UniProt Q9Y679),inactive: 0.156
6,PPME1 C238 (UniProt Q9Y570),inactive: 0.176
7,TCAF1 C488 (UniProt Q9Y4C2),inactive: 0.36
8,RNF114 C176 (UniProt Q9Y508),inactive: -0.246
9,UCHL5 C9 (UniProt Q9Y5K5),inactive: 0.147
10,TLN1 C2161 (UniProt Q9Y490),inactive: -0.0698
11,GTF3C5 C411 (UniProt Q9Y5Q8),inactive: 0.205
12,FAM169A C11 (UniProt Q9Y6X4),inactive: -0.0829
13,USP15 C381 (UniProt Q9Y4E8),inactive: 0.295
14,UniProt Q9Y678_C706,inactive: 0.389
15,SAR1B C178 (UniProt Q9Y6B6),inactive: 0.0167
